Experimental data: PubChem BioAssay (NCATS)
Inconclusive results, whose numbers are uncertain, are shown with a selection of clear calls. Where the call is inconclusive, the potency comes from a doubtful curve fit. Activity calls are given as the source filed them. Calls follow the shape of the dose curve; as a rule, active = well fitted inhibition curve with a large enough effect; inconclusive = small, poorly fitted or top-dose-only effect, or another doubt; inactive = no such curve, though single readings can be large or run the other way.

Sequences of proteins named here, by UniProt entry; tags and fusion partners are left off. A change or cut given only in a name is not applied to a line headed by its entry.
UniProt P11473: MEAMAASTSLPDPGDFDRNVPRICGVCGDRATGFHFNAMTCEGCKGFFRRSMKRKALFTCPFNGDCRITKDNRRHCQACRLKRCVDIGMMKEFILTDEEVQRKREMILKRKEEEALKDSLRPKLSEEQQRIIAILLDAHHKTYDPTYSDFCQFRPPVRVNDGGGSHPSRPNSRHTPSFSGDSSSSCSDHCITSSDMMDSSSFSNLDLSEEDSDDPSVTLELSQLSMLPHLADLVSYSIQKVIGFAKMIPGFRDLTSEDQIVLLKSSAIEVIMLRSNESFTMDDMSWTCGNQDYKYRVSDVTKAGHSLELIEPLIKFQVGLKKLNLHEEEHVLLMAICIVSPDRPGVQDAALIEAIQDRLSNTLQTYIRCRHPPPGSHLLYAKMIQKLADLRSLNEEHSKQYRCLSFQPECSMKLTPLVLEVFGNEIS

molecular target: Vitamin D3 receptor (Homo sapiens) (UniProt P11473); assay: qHTS for Inhibitors of the vitamin D receptor (VDR): Hit Validation in Primary Screen (AID 602199); conditions: VDR-coactivator inhibition assay, qHTS confirmation
Excerpt: The vitamin D receptor (VDR) is a ligand-activated transcription factor and is partially responsible for the regulation of the endocrine system. This includes the transcriptional regulation of genes involved in the production of the parathyroid hormone (PTH) and the regulation of the blood calcium level. High levels of PHT can cause hypercalcemia in the case of primary and tertiary hyperparathyroidism. The VDR-mediated gene regulation, activated by its ligand 1,25-dihydroxyvitamin D3 (1,25-(OH)2D3), is governed by the recruitment of coactivators. Our hypothesis is that small molecules, with the ability to inhibit the interaction between VDR and certain coactivators, are able to selectively modulate VDR-mediated transcription. Our long term objective is the application these VDR-coactivator inhibitors to study the role of VDR-coactivator binding for specific VDR regulated genes. Ultimately, these molecules can be developed into new treatments for hypercalcemic hyperparathyroidism. No small molecule or non-peptide inhibitors are known for the VDR-coactivator interaction.
In a collaboration between the University of Wisconsin, Milwaukee and the NIH Chemical Genomics Center (NCGC) a HTS-compatible enzymatic assay was developed. The assay uses fluorescence polarization as its read-out to measure the inhibition between VDR and coregulator peptide SRC2-3 exerted by small molecules. This assay was used to screen the NIH Molecular Libraries Small Molecule Repository (MLSMR).
NIH Chemical Genomics Center [NCGC]
NIH Molecular Libraries Probe Centers Network [MLPCN]
Assay Submitter (PI): Alexander Arnold, University of Wilwaukee
Four microliter of either 800nM VDR, 5uM LG19078, and […]nM SRC2-3 Alexa 647 (all final concentrations) in columns 1, 2, and 5 to 48 or […]nM SRC2-3 Alexa 647 in columns 3 and 4 are dispensed into black medium-binding solid bottom Greiner plates. Both solutions are kept at 4 deg C and protected from light and dispensed using a Kalypsys dispenser. Then 23nl of compounds and controls are added with Kalypsys pintool. The control is 26.5mM CBT358 (final concentration of 151uM) and the compounds' final range in concentration is 457nM - 114uM. Plate is centrifuged at 1000 RPM for 15 seconds to remove any residual bubbles. The plate is then incubate at ambient room temperature for 2 hours. It is then read on the Envision for a fluorescent polarization read-out (Ex 620 nm/Em 688 nm)
Potency is read from the fitted curve at half-maximal effect.

Potency, inconclusive:
O=C(O)CN1C(=O)/C(=C\c2cc(Br)ccc2OCc2ccc(F)cc2)SC1=S 29.9 µM [inhibitor, partial curve]
CCC(=O)N(CC)C1=C(O)c2ccccc2C(=O)C1=O 23.8 µM [inhibitor, partial curve]
CN1CCC2(CC1)N=C(c1ccc(F)cc1)C(=S)N2C(=O)c1ccc(C(C)(C)C)cc1 11.2 µM [inhibitor, partial curve]
CCOc1cc(/C=C2/C(=O)ON=C2C)ccc1OCc1ccc(F)cc1 2.99 µM [inhibitor, full curve]
COc1ccc(NC(=O)CCS(=O)(=O)c2nc(-c3cccs3)cc(C(F)(F)F)n2)cc1OC 17.8 µM [inhibitor, partial curve]
COc1ccc(Cc2c(O)nc(SC)n(C(C)=O)c2=O)cc1 8.91 µM [inhibitor, partial curve]
O=C(/C=C/c1cccnc1)c1ccc(F)c(F)c1 10.6 µM [inhibitor, partial curve]
COc1ccc(C(=O)/C=C/c2ccccc2F)c(OC(=O)c2ccc([N+](=O)[O-])cc2)c1 7.08 µM [inhibitor, partial curve]
Oc1ccc(C(=S)N2CCN(c3cccc(Cl)c3)CC2)cc1 26.7 µM [inhibitor, single point]
O=C(Oc1ccc(Br)cc1C(=O)/C=C/c1ccccc1F)c1ccco1 18.9 µM [inhibitor, partial curve]
COc1ccc(C(=O)n2nnc3ccccc32)cc1OC 10.6 µM [inhibitor, partial curve]
CCOC(=O)c1c(NC(=O)CSc2nnnn2-c2ccc(OC)cc2)sc(C)c1C 2.99 µM [inhibitor, full curve]
CC(C)CCC[C@@H](C)[C@@H]1CC[C@H]2C3=CC=C4CC(O)CC[C@]4(C)[C@H]3CC[C@@]21C (stereo not given in full) 17.8 µM [inhibitor, single point]
Cn1cnc([N+](=O)[O-])c1S(=O)(=O)c1cccc(Cl)c1 18.9 µM [inhibitor, partial curve]
CCN1CCN(C(c2ccc(C(F)(F)F)cc2)c2ccc3cccnc3c2O)CC1 (stereo not given) 16.8 µM [inhibitor, partial curve]
O=C(/C=C\c1ccccc1OC(=O)c1ccccc1F)c1cc2ccccc2o1 6.7 µM [inhibitor, full curve]
CC1=NNC(=O)/C1=C\c1cn(-c2ccccc2)nc1-c1ccc(Cl)cc1 21.2 µM [inhibitor, partial curve]
COc1ccc(/C=C2/C(=O)N(c3c(F)c(F)c(F)c(F)c3F)N=C2C)cc1 21.2 µM [inhibitor, partial curve]
CCCc1nnc(NC(=O)c2nc(S(=O)(=O)Cc3ccc(C)cc3)ncc2Cl)s1 4.74 µM [inhibitor, full curve]
O=[N+]([O-])c1ccc(/C=C2\CCC(C3=CCCC3)=C2N2CCOCC2)cc1 35.5 µM [inhibitor, single point]
Cc1nc2c3cc(F)ccc3n(Cc3ccccc3)c2s1 26.7 µM [inhibitor, single point]
O=C(Oc1csc(=S)n1C(=O)c1ccccc1)c1ccccc1 11.2 µM [inhibitor, partial curve]
CCc1ccc(/C=C/C(=O)c2ccc(S(=O)(=O)N(C)C)cc2)cc1 10.6 µM [inhibitor, partial curve]
O=c1c(Cl)c(Cl)cnn1Cc1nnc(-c2ccc(Cl)cc2)o1 21.2 µM [inhibitor, partial curve]
NC(=O)COc1ccc(C(=O)/C=C2/C(=O)Nc3ccccc32)cc1 8.44 µM [inhibitor, partial curve]
CCOC(=O)c1c(C2COc3ccccc3O2)csc1NC(=O)c1ccco1 (stereo not given) 2.82 µM [inhibitor, full curve]
O=C1NN(c2ccccc2)C(=O)/C1=C/c1ccc(Sc2ccc(Cl)cc2)o1 8.44 µM [inhibitor, partial curve]
Cc1cccc(C)c1NC(=O)c1nc(S(=O)(=O)Cc2ccccc2F)ncc1Cl 3.55 µM [inhibitor, full curve]
N#CC1=C(N)C(C#N)(C#N)C(c2cccnc2)C2CC(c3ccccc3)CC=C12 (stereo not given) 4.23 µM [inhibitor, full curve]
O=C1OC(NC(=O)c2ccccc2)C(n2cc(CO)nn2)=C1Cl (stereo not given) 16.8 µM [inhibitor, partial curve]
CCOC(=O)c1nn(-c2ccccc2C)c(=O)c2c(N)scc12 26.7 µM [inhibitor, partial curve]
CCOc1ccc(NC(=O)CC2SC(=O)N(c3ccccc3)C2=O)cc1 (stereo not given) 16.8 µM [inhibitor, partial curve]

Copied from the results shown (three entries):
Potency, inconclusive:
O=[N+]([O-])c1ccc(/C=C2\CCC(C3=CCCC3)=C2N2CCOCC2)cc1 35.5 µM [inhibitor, single point]
Cc1nc2c3cc(F)ccc3n(Cc3ccccc3)c2s1 26.7 µM [inhibitor, single point]
O=C(Oc1csc(=S)n1C(=O)c1ccccc1)c1ccccc1 11.2 µM [inhibitor, partial curve]

Following part:

Potency, active:
O=C1/C(=C/c2cccnc2)CCC/C1=C\c1cccnc1 12.6 µM
CCOC(=O)N1C(=O)[C@@](CC)(c2ccccc2)N1C(=O)OCC 21.2 µM
Cc1[nH]n(-c2ncc(-c3ccc(Cl)cc3)s2)c(=O)c1C(c1ccc(Cl)cc1)C(C#N)C#N (stereo not given) 8.44 µM
COc1cccc(C(=O)C(C#N)=C(SC)SC)c1 10.6 µM
Cc1nc2ccc(N=NN(C)C)cc2[nH]1 21.2 µM
CCS(=O)(=O)c1ncc(Cl)c(C(=O)Nc2ccc(S(=O)(=O)N3CCC(C)CC3)cc2)n1 5.32 µM
N#Cc1c(Nc2ccccc2)s[nH]c1=O 7.52 µM
Cc1ccc(NN2C(=O)C=C(c3ccccc3)C2=O)cc1 8.44 µM
